The test system of one data set is source genes (mRNA). The data set can be described thus: Expression profiling of genes encoding the peptides (RNAseq, tumor versus normal tissues). Conditions: for Gene Expression in tumor samples: Highly over-expressed (++): value = tumor type in which the gene is highly over-expressed compared to a panel of normal tissues; for Gene Expression in tumor samples: very highly over-expressed (+++): value = tumor type in which the gene is very highly over-expressed compared to a panel of normal tissues. Further details: species or system human.

For data set [1], the system named is HLA molecules of primary tumors and normal tissue samples. Briefly: Identification and relative quantitation of HLA ligands by LC-MS (peptide presentation on tumor versus normal tissue). Further details: species or system human. Conditions: cancer entities on which the peptide was found presented (HLA ligands, LC-MS); abbreviations as in title of Table 8.
Setting [2] is: source gene of the peptide, value = tumor type in which the gene is over-expressed compared to a panel of normal tissues.

For some of these results: Expression values are those of the mRNA of the gene that encodes the peptide; a gene is named only where it was looked up.

On to “1: peptide found in TRPM8 (gene looked up) (TLDSTRTLY; listed as Homo sapiens) [compound 1]”, for which, in the data set on source genes (mRNA) (source gene of the peptide), the “Gene Expression in tumor samples: Highly over-expressed (++)” value is reported as “GBM” and the “Gene Expression in tumor samples: very highly over-expressed (+++)” value was “PRCA”. Also, the “Peptide Presentation on cancer entities” value in data set [1] is given as “PRCA”.

For the substance “3: peptide found in SLC6A3 (gene looked up) (FGTTPAAEYF; listed as Homo sapiens) [compound 3]”, in the data set on source genes (mRNA) (setting [2]), the “Gene Expression in tumor samples: over-expressed (+)” value (from here on “Gene Expression … over-expressed (+)”) was “NSCLCsquam, SCLC”. Besides, the “Gene Expression in tumor samples: very highly over-expressed (+++)” value with source genes (mRNA) (source gene of the peptide) was “RCC”. Also, the “Peptide Presentation on cancer entities” value in data set [1] is “OSCAR”.

“5: peptide found in SLC6A3 (gene looked up) (FMVIAGMPLFY; listed as Homo sapiens) [compound 5]”: the “Gene Expression … over-expressed (+)” value in the data set on source genes (mRNA) (setting [2]) is reported as “NSCLCsquam”. In addition, in the data set with source genes (mRNA) (source gene of the peptide), the “Gene Expression in tumor samples: very highly over-expressed (+++)” value is “RCC”. In addition, in data set [1], the “Peptide Presentation on cancer entities” value is given as “NSCLCsquam”.

For the substance “9: peptide found in CYP4Z1 (gene looked up) (QLDSTLDSY; listed as Homo sapiens) [compound 9]”, in the data set on source genes (mRNA) (source gene of the peptide), the “Gene Expression in tumor samples: very highly over-expressed (+++)” value is “BRCA”. Further, in data set [1], the “Peptide Presentation on cancer entities” value was “BRCA”.

Consider “21: peptide found in NMUR2 (gene looked up) (LSSAVNPIIY; listed as Homo sapiens) [compound 21]”, for which the “Gene Expression … over-expressed (+)” value in the data set on source genes (mRNA) (setting [2]) is “UEC”. The “Peptide Presentation on cancer entities” value in data set [1] is on record as “MEL”.

Take “22: peptide found in TRPM8 (gene looked up) (VMDTLGLFY; listed as Homo sapiens) [compound 22]”: in the data set on source genes (mRNA) (source gene of the peptide), the “Gene Expression in tumor samples: Highly over-expressed (++)” value is recorded as “PRCA”. Besides, the “Gene Expression … over-expressed (+)” value in the data set with source genes (mRNA) (setting [2]) was “HCC”. Also, the “Peptide Presentation on cancer entities” value in data set [1] was “BRCA, MEL, PRCA”.

Consider “27: peptide found in LOXL4 (gene looked up) (PSEVPVDSHY; listed as Homo sapiens) [compound 27]”, for which the “Gene Expression in tumor samples: Highly over-expressed (++)” value in the data set on source genes (mRNA) (source gene of the peptide) is recorded as “MEL”. Moreover, the “Gene Expression … over-expressed (+)” value with source genes (mRNA) (setting [2]) is given as “CCC”. The “Peptide Presentation on cancer entities” value in data set [1] is listed as “GBM, MEL”.

As for “28: peptide found in LOXL4 (gene looked up) (PSEVPVDSHYY; listed as Homo sapiens) [compound 28]”, the “Gene Expression in tumor samples: Highly over-expressed (++)” value in the data set with source genes (mRNA) (source gene of the peptide) is listed as “MEL”. In the data set with source genes (mRNA) (setting [2]), the “Gene Expression … over-expressed (+)” value is “CCC”. Besides, the “Peptide Presentation on cancer entities” value in data set [1] is listed as “NSCLCother, OC”.

“38: peptide found in F5 (gene looked up) (KSWSQSSSLMY; listed as Homo sapiens) [compound 38]”: the “Gene Expression in tumor samples: Highly over-expressed (++)” value in the data set with source genes (mRNA) (source gene of the peptide) is reported as “HCC”. Also, the “Gene Expression … over-expressed (+)” value in the data set on source genes (mRNA) (setting [2]) was “CCC”. The “Peptide Presentation on cancer entities” value in data set [1] is “HCC, HNSCC, MEL”.

For the substance “39: peptide found in F5 (gene looked up) (WSQSSSLMY; listed as Homo sapiens) [compound 39]”, the “Gene Expression in tumor samples: Highly over-expressed (++)” value in the data set on source genes (mRNA) (source gene of the peptide) is on record as “HCC”. For the same substance, in the data set on source genes (mRNA) (setting [2]), the “Gene Expression … over-expressed (+)” value is “CCC”. For the same substance, in data set [1], the “Peptide Presentation on cancer entities” value is recorded as “AML, GBC, GC, HCC, NSCLCsquam”.

“41: peptide found in NAT1 (gene looked up) (HSDLLEDSKY; listed as Homo sapiens) [compound 41]”: in the data set with source genes (mRNA) (source gene of the peptide), the “Gene Expression in tumor samples: Highly over-expressed (++)” value is on record as “BRCA”. Also, the “Peptide Presentation on cancer entities” value in data set [1] is given as “AML, BRCA, CLL, GBC, GC, HCC, HNSCC, MEL, NHL, NSCLCadeno, NSCLCother, NSCLCsquam, OC, OSCAR, PACA, PRCA, SCLC, UBC, UEC”.

Consider “42: peptide found in PTPRZ1 (gene looked up) (ASDVDTLLK; listed as Homo sapiens) [compound 42]”, for which the “Gene Expression in tumor samples: Highly over-expressed (++)” value in the data set on source genes (mRNA) (source gene of the peptide) is “GBM”. For the same substance, the “Peptide Presentation on cancer entities” value in data set [1] is “GBM”.

Turning to “44: peptide found in PTPRZ1 (gene looked up) (IPSFNEMVY; listed as Homo sapiens) [compound 44]”, the “Gene Expression in tumor samples: Highly over-expressed (++)” value in the data set with source genes (mRNA) (source gene of the peptide) is given as “GBM”. Further, the “Peptide Presentation on cancer entities” value in data set [1] is reported as “GBM, NSCLCadeno, NSCLCsquam”.

In the case of “53: peptide found in LOXL4 (gene looked up) (YLEDRPLSQLY; listed as Homo sapiens) [compound 53]”, the “Gene Expression in tumor samples: Highly over-expressed (++)” value with source genes (mRNA) (source gene of the peptide) was “MEL”. In addition, in data set [1], the “Peptide Presentation on cancer entities” value is reported as “MEL, OC”.

As for “94: peptide found in MMP26 (gene looked up) (KPSAVKDSIY; listed as Homo sapiens) [compound 94]”, in the data set with source genes (mRNA) (source gene of the peptide), the “Gene Expression in tumor samples: Highly over-expressed (++)” value is reported as “PRCA, SCLC” and the “Gene Expression in tumor samples: very highly over-expressed (+++)” value is reported as “UEC”.

Turning to “110: peptide found in MMP13 (gene looked up) (IGDKVDAVY; listed as Homo sapiens) [compound 110]”, the “Gene Expression in tumor samples: Highly over-expressed (++)” value in the data set on source genes (mRNA) (source gene of the peptide) was “HNSCC, NSCLCsquam, OSCAR”. The “Gene Expression … over-expressed (+)” value in the data set with source genes (mRNA) (setting [2]) is “NSCLCadeno, UBC”.

For the substance “118: peptide found in LOXL4 (gene looked up) (LTWAHSAKY; listed as Homo sapiens) [compound 118]”, the “Gene Expression in tumor samples: Highly over-expressed (++)” value with source genes (mRNA) (source gene of the peptide) was “MEL”. In addition, the “Gene Expression … over-expressed (+)” value in the data set with source genes (mRNA) (setting [2]) was “CCC”.

Consider “133: peptide found in LOXL4 (gene looked up) (ITDVGPGNY; listed as Homo sapiens) [compound 133]”, for which the “Gene Expression in tumor samples: Highly over-expressed (++)” value with source genes (mRNA) (source gene of the peptide) is given as “MEL”.

Turning to “152: peptide found in LOXL4 (gene looked up) (YLEDRPLSQ; listed as Homo sapiens) [compound 152]”, in the data set with source genes (mRNA) (source gene of the peptide), the “Gene Expression in tumor samples: Highly over-expressed (++)” value is on record as “MEL”.

Consider “153: peptide found in LOXL4 (gene looked up) (HSIEVFTHY; listed as Homo sapiens) [compound 153]”, for which the “Gene Expression in tumor samples: Highly over-expressed (++)” value with source genes (mRNA) (source gene of the peptide) is given as “MEL”.

With “154: peptide found in LOXL4 (gene looked up) (SIEVFTHY; listed as Homo sapiens) [compound 154]”, in the data set on source genes (mRNA) (source gene of the peptide), the “Gene Expression in tumor samples: Highly over-expressed (++)” value was “MEL”.

For “193: peptide found in SLC5A4 (gene looked up) (SQNGQLIHY; listed as Homo sapiens) [compound 193]”, in the data set with source genes (mRNA) (source gene of the peptide), the “Gene Expression in tumor samples: Highly over-expressed (++)” value was “MEL”.

In the case of “227: peptide found in PDE10A (gene looked up) (ESAPKEVSRY; listed as Homo sapiens) [compound 227]”, in the data set with source genes (mRNA) (setting [2]), the “Gene Expression … over-expressed (+)” value is “RCC, UBC”.

On to “231: peptide found in CXCR3 (gene looked up) (LLPLLVMAY; listed as Homo sapiens) [compound 231]”, for which, in the data set with source genes (mRNA) (setting [2]), the “Gene Expression … over-expressed (+)” value is “CLL”.

Regarding “236: peptide found in IGF2BP1 (gene looked up) (VLDSLLAQY; listed as Homo sapiens) [compound 236]”, the “Gene Expression … over-expressed (+)” value with source genes (mRNA) (setting [2]) is listed as “GBC, HCC, HNSCC, NSCLCsquam, SCLC”.

Take “264: peptide found in CYP2W1 (gene looked up) (YRDPVFVSL; listed as Homo sapiens) [compound 264]”: in the data set on source genes (mRNA) (setting [2]), the “Gene Expression … over-expressed (+)” value was “CRC”.

As for “354: peptide found in HPGDS (gene looked up) (EIIRYIFAY; listed as Homo sapiens) [compound 354]”, the “Gene Expression … over-expressed (+)” value in the data set on source genes (mRNA) (tumor types in which the source gene is over-expressed (+) compared to a panel of normal tissues) is recorded as “AML”.

Source of the values: patent US12195506B2, “Immunotherapy with A*01 restricted peptides and combination of peptides against cancers and related methods” (Immatics Biotechnologies GmbH, priority 2018, dated 2025).
